# According to PubChem BioAssay AID2551 (National Center for Advancing Translational Sciences (NCATS), 2010):
# The chains behind the UniProt entries cited, without tags or fusion partners. Where a name states a change or a piece, a line headed by the entry shows the natural chain unless it says otherwise.
# UniProt P51450: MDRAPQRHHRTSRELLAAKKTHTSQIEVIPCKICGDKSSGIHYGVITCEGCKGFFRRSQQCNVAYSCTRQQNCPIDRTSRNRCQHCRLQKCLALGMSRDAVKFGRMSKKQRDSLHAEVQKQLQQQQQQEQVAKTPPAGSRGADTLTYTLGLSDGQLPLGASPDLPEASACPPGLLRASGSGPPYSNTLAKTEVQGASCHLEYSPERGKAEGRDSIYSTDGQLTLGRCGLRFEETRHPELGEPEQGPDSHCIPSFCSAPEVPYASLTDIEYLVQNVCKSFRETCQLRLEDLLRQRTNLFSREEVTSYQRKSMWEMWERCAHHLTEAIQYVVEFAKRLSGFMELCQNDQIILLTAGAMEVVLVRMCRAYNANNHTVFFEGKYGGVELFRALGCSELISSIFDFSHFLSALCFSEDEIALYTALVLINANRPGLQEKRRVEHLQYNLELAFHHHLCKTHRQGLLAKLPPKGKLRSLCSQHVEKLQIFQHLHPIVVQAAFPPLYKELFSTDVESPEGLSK
# Out of some 310,000 compounds screened, about 17,000 (5.5%) were called active. Inconclusive means that the source gave no clear call. Such entries were picked first, then a sample of the others. The call rests on the fitted dose curve; in most records, active means well fitted inhibition curve with a large enough effect; inconclusive means small, poorly fitted or top-dose-only effect, or effect the other way; inactive means no such curve, though single readings can be large or run the other way. Potencies of inconclusive entries are doubtful fits and often do not repeat.
# Target: Nuclear receptor ROR-gamma (Mus musculus) (UniProt P51450)
# Assay: qHTS for inhibitors of ROR gamma transcriptional activity; further: nearly all actives have a fitted effect of over 60% in size
# Settings: Drosophila S2 Gal4-RORgamma UAS-luciferase reporter, 20 h; series mostly up to 53.6 µM
# Method in brief: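 Stably transfected Drosophila Schneider cells are the test system, with ROR gamma fused to Gal4 and luciferase under UAS control; luminescence is read after 20 hr of 700 uM copper sulfate induction at ambient temperature.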
# Potency means the concentration at half of the fitted maximal effect.
row,SMILES,Potency
1,COc1ccc(CNC(=O)c2sccc2-c2ccccc2)cc1OC,"inconclusive: 22.4 µM [activator, single point]"
2,Cc1nc2c(ccc3nc(NC(=O)c4ccc5c(c4)OCCO5)sc32)s1,active: 0.199 µM
3,CN(C)CCNC(=O)c1ccc(CS(=O)(=O)c2c(Cl)cccc2Cl)o1,"inconclusive: 0.708 µM [inhibitor, single point]"
4,COc1cc(C)nc(N2CCCC(C(=O)NC3CCC(C)CC3)C2)n1 (stereo not given),inactive
5,COc1ccc(S(=O)(=O)N2CCC(C(=O)N[C@H](C(=O)NC3CCCC3)C(C)C)CC2)cc1,inactive
6,COCCN1Cc2cccc(C(=O)Nc3ccc(C)c(C)c3)c2C1=O,inactive
7,CN(c1ccccc1)c1nc(N)c(C#N)c(CC#N)c1C#N,"inconclusive: 11.2 µM [activator, partial curve]"
8,Cc1ccc(C(=O)NC(=S)Nc2cccc(NC(=O)c3ccccc3)c2)cc1[N+](=O)[O-],active: 2.51 µM
9,Cc1ccc(NC(=O)/C=C/c2cccc(C(F)(F)F)c2)cc1,"inconclusive: 14.1 µM [activator, single point]"
10,COc1ccc(-c2ccc(=O)n(CC(=O)Nc3ccc4c(c3)OCCO4)n2)cc1,active: 11.2 µM
11,CCCCC1C(=O)N(c2ccccc2)N(c2ccc(O)cc2)C1=O (stereo not given),active: 4.47 µM
12,CC(=O)Nc1ccc2nc(SCC(=O)N3CCOCC3)sc2c1,inactive
13,O=C(CN1CCN(Cc2ccccc2Cl)CC1)N/N=C/C=C/c1ccccc1[N+](=O)[O-],"inconclusive: 35.5 µM [inhibitor, single point]"
14,CC(=O)Nc1cccc(C(=O)/C=C/c2ccc(N(C)C)cc2)c1,"inconclusive: 12.6 µM [activator, single point]"
15,O=C(COC(=O)c1ccc2[nH]c3c(c2c1)CCCC3)Nc1ccccc1,"inconclusive: 11.2 µM [activator, partial curve]"
16,Cc1ccccc1OCC(=O)NNC(=O)c1ccc(-c2ccccc2)cc1,"inconclusive: 35.5 µM [inhibitor, single point]"
17,COc1ccc(/C=N/Nc2nc(Nc3ccccc3)nc(N3CCCC3)n2)cc1[N+](=O)[O-],active: 12.6 µM
18,Cc1ccc(Nc2nc(N)nc(CCl)n2)cc1,"inconclusive: 12.6 µM [inhibitor, single point]"
19,Cc1c(Cl)cccc1N=Cc1ccc([N+](=O)[O-])s1,"inconclusive: 35.5 µM [inhibitor, single point]"
20,CN1CCN(CCNC(=O)c2ccc3nc(-c4ccc(F)cc4)c(-c4ccc(F)cc4)nc3c2)CC1,"inconclusive: 35.5 µM [inhibitor, single point]"
21,O=C(O)C1CC=CCC1C(=O)NCc1cn2ccccc2n1 (stereo not given),"inconclusive: 0.126 µM [activator, full curve, poor fit]"
22,Cc1ccn2c(-c3csc(NCc4ccccc4)n3)c(C)nc2c1,active: 14.1 µM
23,Cc1cccc(OCC(=O)N/N=C/c2cccn2C)c1,inactive
24,COc1cc(/C=C2/C(=O)N(c3ccc([N+](=O)[O-])cc3)N=C2N2CCOCC2)ccc1O,"inconclusive: 35.5 µM [activator, single point]"
25,Cc1ccc(-c2csc(NC(=O)CSc3nnc4c(n3)[nH]c3ccccc34)n2)cc1,"inconclusive: 35.5 µM [activator, single point]"

row,SMILES,Potency
1,CC(=O)c1c(C)[nH]c(C(=O)CSc2nc3ccccc3n2C)c1C,inactive
2,CC(CCc1ccco1)NC(=O)c1cc2c(-c3ccccc3F)nn(C)c2s1 (stereo not given),"inconclusive: 1.58 µM [inhibitor, partial curve, poor fit]"
3,N#C/C(=C(/N)Sc1ccc(N)cc1)c1ccccc1C(F)(F)F,inactive
4,Cc1ccc([N+](=O)[O-])cc1N/C=C/C(=O)c1ccco1,"inconclusive: 1.26 µM [activator, partial curve, poor fit]"
5,C/C(=N\NC(=O)Cc1ccccc1)c1ccc(Cl)s1,inactive
6,COc1ccc(/C(N)=N/OC(=O)CSc2ccccc2)cc1OC,"inconclusive: 8.91 µM [activator, partial curve]"
7,COc1ccc(OC)c(C(=O)c2nc3c(n2O)CCCCC3)c1,inactive
8,CCNC(=S)N/N=C/c1ccc(OCC(=O)Nc2ccc(C)cc2)cc1,active: 17.8 µM
9,CN(C)Cc1c(C(=O)N/N=C/c2ccccc2OCc2c(F)cccc2Cl)nnn1-c1nonc1N,"inconclusive: 4.47 µM [activator, full curve, poor fit]"
10,COc1ccc(C(=O)Oc2ccc(F)cc2C(=O)/C=C/c2ccc(OC)c(OC)c2)cc1,"inconclusive: 28.2 µM [inhibitor, single point]"
11,CSc1ccc(C(=O)N2CCC(CCC(=O)NCc3ccc(F)cc3)CC2)cc1,inactive
12,Cc1cc(C)nc(Nc2n[nH]c(-c3ccc(N)cc3)n2)n1,inactive
13,Cc1ccc(NC(=O)CN2C(=S)NC(C)(C)CC2C)cc1Cl (stereo not given),active: 14.1 µM
14,Cc1cc(CNC(=O)c2ccc3c(c2)OCO3)c2ccccc2n1,inactive
15,CC(=O)c1ccc2c(c1)OCCOCCOCCO2,inactive
16,O=C1N(c2ccccc2)CCN1c1ccccc1,"inconclusive: 14.1 µM [inhibitor, single point]"
17,CCCC(=O)N(c1ccc2oc(=O)sc2c1)S(=O)(=O)c1ccccc1,"inconclusive: 35.5 µM [inhibitor, single point]"
18,O=C(NC(=S)NNC(=O)c1ccccc1O)c1ccccc1,active: 11.2 µM
19,CC(C)n1c(NCc2cc(Cl)ccc2O)nc2ccccc21,"inconclusive: 3.55 µM [activator, single point]"
20,O=C(CCC(=O)N1CCN(S(=O)(=O)c2ccc(Cl)cc2)CC1)NCc1ccccc1,"inconclusive: 14.1 µM [activator, single point]"
21,Cc1ccccc1Nc1nc2ccccc2s1,"inconclusive: 17.8 µM [inhibitor, single point]"
22,Cc1ccc(CNC(=O)[C@H](C)[C@@H]2C[C@@]2(C)[C@@H](NC(=O)OCc2ccccc2)c2ccccc2)o1,"inconclusive: 11.2 µM [activator, partial curve]"
23,CCOc1ccc2[nH]cc(S(=O)(=O)c3ccc(C)cc3)c(=O)c2c1,"inconclusive: 12.6 µM [activator, single point]"
24,Cc1ccc(C)c(NC(=S)N(CCN(C)C)C(C)c2ccccn2)c1 (stereo not given),"inconclusive: 22.4 µM [inhibitor, single point]"
25,COc1cc(NC(=O)C2CC(c3cccc(OC)c3OC)=NO2)cc(OC)c1OC (stereo not given),"inconclusive: 10 µM [activator, single point]"

# Three entries drawn at random from those above:
row,SMILES,Potency
2,CC(CCc1ccco1)NC(=O)c1cc2c(-c3ccccc3F)nn(C)c2s1 (stereo not given),"inconclusive: 1.58 µM [inhibitor, partial curve, poor fit]"
1,COc1ccc(CNC(=O)c2sccc2-c2ccccc2)cc1OC,"inconclusive: 22.4 µM [activator, single point]"
16,O=C1N(c2ccccc2)CCN1c1ccccc1,"inconclusive: 14.1 µM [inhibitor, single point]"

# The results go on.

row,SMILES,Potency
1,CCc1cc2c(=O)c(-c3nc4ccccc4n3C)c(COCC(=O)O)oc2cc1O,inactive
2,O=S(=O)(NC(=S)c1ccccc1)c1ccc(F)cc1,active: 11.2 µM
3,COc1ccc(CNC(=S)N/N=C(\C)c2ccc(OC)cc2)cc1,active: 6.31 µM
4,Cn1ccnc1SCC(=O)c1cc2ccccc2o1,"inconclusive: 2.82 µM [activator, partial curve]"
5,N=c1c2c3c(sc2ncn1CCCO)CCCC3,inactive
6,Cc1ccc2[nH]c(=O)c(CN(Cc3cccs3)C(=S)NCC3CCCO3)cc2c1 (stereo not given),"inconclusive: 20 µM [activator, single point]"
7,CC(C)(CCCCCCCCCCC(C)(C)CC(=O)O)CC(=O)O,inactive
8,Cc1cccc(C(=O)Nc2ccc3c(c2)nc(C)n3C)c1,"inconclusive: 11.2 µM [inhibitor, partial curve, poor fit]"
9,C/C(=N\Nc1nc(C)cc(-c2ccccc2)n1)c1ccc(F)cc1,active: 3.16 µM
10,CCCOC1CCCN(C(=O)c2ccc(OC3CCN(Cc4ccccn4)CC3)cc2)C1 (stereo not given),"inconclusive: 17.8 µM [inhibitor, single point]"
11,CCOC(=O)Cc1c(C)nc2c(C#N)c(C)nn2c1C,"inconclusive: 22.4 µM [inhibitor, single point]"
12,Cc1cccc(-c2cc(N)n(-c3ccccc3)n2)c1,"inconclusive: 3.16 µM [activator, partial curve]"
13,CC(=O)Nc1cccc(OCCCNC(=O)c2cccc3ccccc23)c1,"inconclusive: 35.5 µM [activator, single point]"
14,CCOC(=O)C1=C(C)NC(=S)N(C(C)=O)C1c1ccccc1 (stereo not given),"inconclusive: 20 µM [inhibitor, single point]"
15,CCOC(=O)C(C)Sc1ncnc2c1nnn2-c1ccc(F)cc1 (stereo not given),"inconclusive: 11.2 µM [inhibitor, single point]"
16,COc1ccc2c(CC(=O)Nc3ncc(C)s3)coc2c1,"inconclusive: 0.562 µM [activator, partial curve]"
17,CCc1nnc(NC(=O)CSc2nc(C)cs2)s1,"inconclusive: 35.5 µM [inhibitor, single point]"
18,CN(C)c1ccc(/C=N/NC(=O)c2nnn(-c3nonc3N)c2CN(C)c2ccccc2)cc1,inactive
19,CCn1c(=O)c2ccccc2n(Cc2cccc(C)c2)c1=O,inactive
20,CCOC(=O)c1sc(NC(=O)CSc2ncn[nH]2)c(C#N)c1C,inactive
21,CN(CC(O)COc1ccccc1F)C1CCCCC1 (stereo not given),inactive
22,Cc1nc(NC(=O)/C=C/c2ccccc2)n[nH]1,"inconclusive: 25.1 µM [inhibitor, single point]"
23,Cc1nc(NC(=S)Nc2ccccc2)sc1C,active: 0.891 µM
24,CN(C)c1ccc(-c2nc(NCCc3cnc[nH]3)c3ccccc3n2)cc1,"inconclusive: 14.1 µM [inhibitor, single point]"
25,Cc1ccc2sc(N(CCCN(C)C)C(=O)c3nc4ccccc4s3)nc2c1C,inactive
